## Percent effect of library compounds

By UniProt entry, the sequences of proteins in these tests, tags left out. Residues count along the entry.
UniProt I6X8D2, whole entry: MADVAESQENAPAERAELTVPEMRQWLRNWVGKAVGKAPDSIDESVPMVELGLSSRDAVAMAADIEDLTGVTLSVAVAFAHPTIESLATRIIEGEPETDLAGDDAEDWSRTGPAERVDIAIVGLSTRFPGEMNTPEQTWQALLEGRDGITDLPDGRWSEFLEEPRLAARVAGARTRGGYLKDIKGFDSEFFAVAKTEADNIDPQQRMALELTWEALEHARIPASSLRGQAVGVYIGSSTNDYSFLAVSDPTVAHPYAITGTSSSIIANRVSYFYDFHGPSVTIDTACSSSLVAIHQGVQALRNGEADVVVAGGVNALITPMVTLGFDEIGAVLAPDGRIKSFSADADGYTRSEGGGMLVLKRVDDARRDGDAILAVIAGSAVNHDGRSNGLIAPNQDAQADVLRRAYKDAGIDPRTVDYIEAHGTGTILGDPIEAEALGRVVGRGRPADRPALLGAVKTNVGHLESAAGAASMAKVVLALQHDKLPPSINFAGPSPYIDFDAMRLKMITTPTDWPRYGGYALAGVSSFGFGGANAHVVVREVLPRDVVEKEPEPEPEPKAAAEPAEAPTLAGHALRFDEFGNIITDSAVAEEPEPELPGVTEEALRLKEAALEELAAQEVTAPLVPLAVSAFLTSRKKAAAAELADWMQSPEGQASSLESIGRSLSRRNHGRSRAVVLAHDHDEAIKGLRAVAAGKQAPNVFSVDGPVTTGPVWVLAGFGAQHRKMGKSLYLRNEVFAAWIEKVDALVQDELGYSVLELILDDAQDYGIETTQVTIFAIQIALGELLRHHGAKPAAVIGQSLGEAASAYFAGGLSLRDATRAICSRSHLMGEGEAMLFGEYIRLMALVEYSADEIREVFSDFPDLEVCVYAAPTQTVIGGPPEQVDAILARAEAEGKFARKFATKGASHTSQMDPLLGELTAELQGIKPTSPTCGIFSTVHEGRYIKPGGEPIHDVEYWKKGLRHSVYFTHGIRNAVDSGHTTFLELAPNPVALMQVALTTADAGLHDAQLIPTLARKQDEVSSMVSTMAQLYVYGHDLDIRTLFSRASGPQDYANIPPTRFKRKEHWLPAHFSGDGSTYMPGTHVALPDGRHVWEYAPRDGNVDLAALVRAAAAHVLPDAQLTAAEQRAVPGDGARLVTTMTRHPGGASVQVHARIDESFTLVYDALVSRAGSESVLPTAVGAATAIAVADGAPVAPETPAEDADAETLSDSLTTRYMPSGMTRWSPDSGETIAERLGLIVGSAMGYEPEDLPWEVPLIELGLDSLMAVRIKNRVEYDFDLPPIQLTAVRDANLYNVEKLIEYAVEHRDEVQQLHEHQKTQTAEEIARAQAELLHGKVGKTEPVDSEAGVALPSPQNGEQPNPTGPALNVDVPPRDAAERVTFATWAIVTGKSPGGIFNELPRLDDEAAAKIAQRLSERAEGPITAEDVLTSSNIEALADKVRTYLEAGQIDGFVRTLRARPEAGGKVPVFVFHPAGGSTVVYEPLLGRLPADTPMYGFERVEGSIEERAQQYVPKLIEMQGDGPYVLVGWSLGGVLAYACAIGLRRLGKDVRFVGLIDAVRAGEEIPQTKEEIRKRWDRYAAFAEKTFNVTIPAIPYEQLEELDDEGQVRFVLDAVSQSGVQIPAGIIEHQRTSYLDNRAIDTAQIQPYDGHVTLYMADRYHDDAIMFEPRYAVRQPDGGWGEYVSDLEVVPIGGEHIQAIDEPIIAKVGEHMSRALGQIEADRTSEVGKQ
UniProt A4I591, 1-473: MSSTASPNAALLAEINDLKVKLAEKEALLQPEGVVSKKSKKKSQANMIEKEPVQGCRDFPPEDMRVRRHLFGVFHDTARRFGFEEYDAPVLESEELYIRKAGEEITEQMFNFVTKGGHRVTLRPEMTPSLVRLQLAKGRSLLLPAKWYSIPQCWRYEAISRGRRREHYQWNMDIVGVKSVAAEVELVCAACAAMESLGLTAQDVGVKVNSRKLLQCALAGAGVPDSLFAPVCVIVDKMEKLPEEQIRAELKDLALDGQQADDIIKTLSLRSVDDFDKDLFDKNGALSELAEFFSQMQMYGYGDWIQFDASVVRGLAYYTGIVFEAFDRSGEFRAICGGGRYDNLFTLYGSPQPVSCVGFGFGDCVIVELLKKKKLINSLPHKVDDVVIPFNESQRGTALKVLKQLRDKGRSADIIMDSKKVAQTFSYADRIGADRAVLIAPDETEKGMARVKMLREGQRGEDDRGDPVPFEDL
UniProt P9WPC5, whole entry: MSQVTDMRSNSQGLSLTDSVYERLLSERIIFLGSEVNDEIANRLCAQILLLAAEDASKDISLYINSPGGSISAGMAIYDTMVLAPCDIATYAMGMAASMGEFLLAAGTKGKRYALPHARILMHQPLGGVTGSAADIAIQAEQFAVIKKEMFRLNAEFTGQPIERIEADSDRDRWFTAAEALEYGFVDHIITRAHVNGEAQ
UniProt P9WPC3, whole entry partner: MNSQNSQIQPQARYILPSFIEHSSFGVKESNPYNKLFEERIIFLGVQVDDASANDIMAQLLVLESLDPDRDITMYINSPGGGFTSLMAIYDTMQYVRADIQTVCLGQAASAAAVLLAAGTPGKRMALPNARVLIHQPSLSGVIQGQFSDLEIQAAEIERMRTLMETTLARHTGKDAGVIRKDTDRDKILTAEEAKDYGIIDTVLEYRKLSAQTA
UniProt P9WNZ1, whole entry: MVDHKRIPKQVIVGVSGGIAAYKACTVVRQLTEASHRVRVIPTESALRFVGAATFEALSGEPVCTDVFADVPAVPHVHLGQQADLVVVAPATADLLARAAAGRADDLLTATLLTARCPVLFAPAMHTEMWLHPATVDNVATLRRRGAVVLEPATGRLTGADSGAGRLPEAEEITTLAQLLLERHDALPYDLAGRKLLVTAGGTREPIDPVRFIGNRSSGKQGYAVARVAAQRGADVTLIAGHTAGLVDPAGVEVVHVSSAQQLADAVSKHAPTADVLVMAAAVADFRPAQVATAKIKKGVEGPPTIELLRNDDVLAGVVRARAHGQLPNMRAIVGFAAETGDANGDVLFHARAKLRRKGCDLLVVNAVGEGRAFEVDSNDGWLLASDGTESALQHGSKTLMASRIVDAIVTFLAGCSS

Source: ChEMBL document CHEMBL3988442, “University of Dundee, Small-Polar-MMV Screening Library” (2021).

The filed quantity is “Percent Effect” (%). How 0% and 100% were set is not recorded. Most values in the screen are low, and negative values occur. Compounds were drawn at random from those tested, without regard to their results. Two or more numbers in one place are separate tests of the same structure; such repeats can differ widely. A dash means the value is not listed here; it may have been measured.

A: 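Polyketide synthase Pks13, Mycobacterium tuberculosis (UniProt I6X8D2). Enzyme assay of the thioesterase domain of polyketide synthase 13; the read-out is not stated. Concentration: 30 µM. Higher reads as stronger inhibition (inferred from which compounds were picked for retests). Of about 67,000 compounds tested this way, about 300 (0.46%) reached 50% or more in at least one test.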
B: 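Enzyme assay of histidyl-tRNA synthetase; the read-out is not stated. Target: Histidine-tRNA ligase, Leishmania infantum (UniProt A4I591). Tested at 30 µM. Higher reads as stronger inhibition (inferred: compounds with an IC50 in retests scored well above the rest). The assay is labelled LdHisRS but filed under L. infantum. About 69,000 compounds were tested under these conditions; 0.6% (about 410) showed 50% or more at least once.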
C: 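Cell assay of Leishmania donovani living inside macrophages; the read-out is not stated. Compounds at 30 µM. Direction is inferred from retests: higher values go with stronger inhibition. Of about 69,000 compounds tested this way, about 1,000 (1.5%) reached 50% or more in at least one test.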
D: 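ClpP1P2, Mycobacterium tuberculosis (UniProt P9WPC5 and UniProt P9WPC3). Protease assay of ClpP1P2, read by the AMC dye that it sets free. Compounds at 50 µM. Direction is inferred from only a few compounds that gave an IC50; most scored high, so higher reads as stronger inhibition. Most other retested compounds had strongly negative values. About 69,000 compounds were tested under these conditions; 0.015% (about 10) showed 50% or more at least once.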
E: 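Assay of Toxoplasma gondii numbers, read through their beta-galactosidase reporter with a colour substrate. Concentration: 10 µM. The record gives no direction; the compounds picked for IC50 retests had high values, so higher reads as fewer parasites. Size under these conditions: about 67,000 compounds, about 260 of them at 50% or above in at least one test.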
F: 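Coenzyme A biosynthesis protein CoaBC, Mycobacterium tuberculosis (UniProt P9WNZ1). Enzyme assay of CoaBC with a phosphate dye (Biomol Green) read at 650 nm. Concentration: 30 µM. Higher reads as stronger inhibition, judged from the few compounds that gave an IC50. Most strong results did not repeat in a second test. About 67,000 compounds were tested under these conditions; 0.06% (about 40) showed 50% or more at least once.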

| SMILES | A | B | C | D | E | F |
|---|---|---|---|---|---|---|
| `COCCC(=O)N1CCC(c2cc3ncc(C)nc3[nH]2)CC1` | 18.66% | 3.448% | 7.824% | -42.58% | 3.193% | 0.618% |
| `CN(C)c1ncccc1C(=O)N1CCCN(c2cccnn2)CC1` | 1.347% | 1.653% | -5.81% | -9.324% | 2.2% | -28.73% |
| `CC(NC(=O)NCCCn1cncn1)c1ccncc1` (stereo not shown) | -35.15% | 14.68% | 14.71% | -28.47% | 16.19% | 3.362% |
| `O=S(=O)(N1CCOCC1)N1CCc2sccc2C1` | -5.478% | 12.77% | -23.04% | 4.877% | -16.82% | 1.737% |
| `CC(C)N1CCC(Cc2cncc(-c3ccccc3C(=O)O)n2)CC1` | -21.88% | 8.029% | 4.63% | 8.561% | -4.049% | 4.145% |
| `O=C1O[C@@H]2CN(c3ncccn3)C[C@@H]2N1CCCc1ccc(F)cc1` | -18.51% | 8.219% | - | -12.31% | - | -3.182% |
| `Cc1ccccc1OC1CCN(CC(=O)Nc2ccn(C)n2)CC1` | 3.449% | 8.054% | - | -26.05% | - | -0.4566% |
| `CN(C)c1nc2c(c(=O)[nH]1)CCN(C(=O)c1cccc3nccnc13)C2` | -8.225% | 14.15% | 14.13% | 5.115% | -10.39% | 1.818% |
| `O=C(C1CC1)N1CCN(C(=O)CSc2ccccn2)[C@H]2CS(=O)(=O)C[C@H]21` | -3.324% | 21.43% | - | 9.22% | - | 4.914% |
| `O=C(N1CCOCC1)[C@@]12CCO[C@@H]1CCN(Cc1ccncc1)C2` | -4.012% | 7.547% | - | -11.86% | - | 2.439% |
| `Cc1nc(C)c(C(=O)Nc2cnn(CC(=O)NC3CCCC3)c2)s1` | 1.192% | 10.14% | -0.5269% & -1.907% | 7.082% | -20.54% | -1.214% |
| `Cc1c(C(=O)NCC(C)C)nnn1-c1cccc2c1CCN(CCO)C2` | -7.264% | 15.18% | -1.242% | 15.12% | 20.93% | 12.4% |
| `CCOCC(=O)N1C[C@H]2CCC[C@@]2(COC)C1` | -21.58% | 21.15% | - | 4.524% | - | 7.394% |
| `Cc1ccc(-c2cccc(N3CCC(NC4CCOCC4)CC3)c2)cc1` | -17.8% | 12.24% | 88.48% | -4.706% | 36.9% | -10.74% |
| `CN(C)Cc1ccnc(C2CCCN2Cc2ccc(F)cn2)n1` (stereo not shown) | 7.918% | 26.8% | -9.429% & 2.508% | -10.54% | 2.392% | 1.453% |
| `Cc1csc(CNC(=O)NCC(O)c2ccc(F)cc2)n1` (stereo not shown) | -29.15% | 20.55% | 27.46% | 6.526% | -4.93% | 7.051% |
| `Cc1nc(-c2ccc(CC(=O)N3CCN(C(=O)C(C)C)CC3)cc2)cs1` | -10.41% | 63.64% | 7.358% | 88.36% | 14.26% | 94.56% & -7.407% |
| `CC(C)CC(NC(=O)c1ccc[nH]1)C(=O)N1CCC(CO)CC1` (stereo not shown) | -5.811% | 5.479% | -8.78% | -9.933% | -5.526% | 6.375% |
| `[H][C@]12CCN(C(=O)NC)CC[C@@]1([H])S(=O)(=O)N(CC)C2` | - | - | 4.159% | - | 59.16% | - |
| `O=C(C[S+]([O-])Cc1c(F)cccc1Cl)N1CCc2sccc2C1` (stereo not shown) | -63.06% | 17.65% | 6.635% | 1.06% | 12.87% | -4.888% |
| `Cc1ccc(CN2CCN(Cc3ccncc3)CC2=O)cc1` | -15.01% | 18.4% | -11.56% | -19.31% | -9.002% | 2.774% |
| `CCn1ccnc1CN1CCCN(C(=O)Cc2ccc(C)s2)CC1` | -32.08% | 20.51% | 7.385% | -10.43% | 0.7012% | -8.579% |
| `CNc1nccnc1C1CN(Cc2ccc3[nH]ccc3c2)CCO1` (stereo not shown) | 0.7732% | 0% | 23.47% | -20.17% | -0.0646% | 6.294% |
| `CCCNS(=O)(=O)c1cc2c3c(c1)c(C)cc(=O)n3CCC2` | -1.816% | 7.246% | 32.95% | 4.025% | -12.19% | 0.7884% |
| `O=C(O)C(F)(F)F.O=C(O)C(F)(F)F.[H][C@@]12COC[C@H](NS(C)(=O)=O)[C@]1([H])CN(Cc1cccc(C)n1)C2` | - | - | 8.107% | - | 7.498% | - |
| `CCCN1CC(NC(=O)Nc2nc(C)n(C(C)C)n2)CC1=O` (stereo not shown) | -16.68% | 10.45% | -9.011% | -5.093% | -6.095% | 5.622% |
| `CCOc1ccc(CN2CCCC(c3nn(C)c(=O)n3CC)C2)cn1` (stereo not shown) | 2.491% | 6.557% | 10.73% | -9.018% | -2.493% | -2.575% |
| `Cc1cc(C)n(CCCN(C)c2cc(N(C)C)ncn2)n1` | -6.304% | 10% | 7.899% | 1.788% | 8.542% | 5.018% |
| `Cc1ncc2c(c1CNC(=O)C1(C)CC1)CCNC2` | -34.88% | -17.95% | 13.34% | -7.767% | 20.2% | 9.859% |
| `Cc1ccc(C2COCCN2C(=O)c2ccc(N(C)C)cc2)o1` (stereo not shown) | -19% | 16.5% | -11.14% | 9.364% | -3.634% | 9.821% |
| `Cc1ccc(CN(C(=O)NCC2CCCO2)C2CC2)o1` (stereo not shown) | -1.251% | 14.67% | 3.485% | 0.9011% | -18.68% | -1.789% |
| `O=C(CCc1nc2cc(Br)cnc2[nH]1)NCc1cccnc1` | -15.93% | 18.42% | -0.2026% | -5.793% | -43.13% | 1.263% |
| `Cc1ccc(CN2CCOC3(CCN(C(=O)C4CCOC4)CC3)C2)cc1` (stereo not shown) | -34.77% | 21.05% | - | -0.3112% | - | 9.937% |

For reference, 4 entries once more:

SMILES,A,B,C,D,E,F
Cc1ccc(CN2CCOC3(CCN(C(=O)C4CCOC4)CC3)C2)cc1 (stereo not shown),-34.77%,21.05%,-,-0.3112%,-,9.937%
CN(C)c1ncccc1C(=O)N1CCCN(c2cccnn2)CC1,1.347%,1.653%,-5.81%,-9.324%,2.2%,-28.73%
CCn1ccnc1CN1CCCN(C(=O)Cc2ccc(C)s2)CC1,-32.08%,20.51%,7.385%,-10.43%,0.7012%,-8.579%
O=S(=O)(N1CCOCC1)N1CCc2sccc2C1,-5.478%,12.77%,-23.04%,4.877%,-16.82%,1.737%